In PubChem BioAssay AID504834 (National Center for Advancing Translational Sciences (NCATS), 2011):
In all, about 320,000 compounds went through this assay and about 22,000 (6.9%) were called active. The shares of active, inactive and inconclusive entries below differ from those in the screen. Calls follow the shape of the dose curve; as a rule, active = well fitted inhibition curve with a large enough effect; inconclusive = small, poorly fitted or top-dose-only effect, or another doubt; inactive = no such curve, though single readings can be large or run the other way. A potency beside an inconclusive call is a rough fit, not a confirmed value.

Assay: Primary qHTS for delayed death inhibitors of the malarial parasite plastid, 96 hour incubation
Settings: P. falciparum luciferase reporter growth; series mostly up to 28.7 µM; activity change, negative = inhibition: at the top concentration
Method in brief: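 Compounds incubated with erythrocytes infected by luciferase-expressing P. falciparum (2% hematocrit, 0.05% parasitemia final) for 96 hours, 37 C in 5% CO2. Growth inhibition scored as decreased luciferase luminescence.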
% is scaled to controls: 0 for no effect and ±100 for the full control effect; potency is read from the fitted curve at half-maximal effect.

Question: For `O=C(Nc1ccc(F)cc1F)N1CCN(C/C=C/c2ccccc2)CC1`, which Potency is on record?
Answer: The Potency was inconclusive: 2.94 µM [inhibitor, single point].

Question: For `O=C(OC1CCOC1=O)c1cccc(S(=O)(=O)Nc2cccc(Cl)c2)c1` (stereo unspecified), which Potency is on record?
Answer: The Potency was inconclusive: 11.7 µM [inhibitor, single point].

Question: Which Potency does the source give for `O=C(CCCOc1ccccc1)NCCc1ccccc1` here?
Answer: Its Potency is inconclusive: 18.5 µM [inhibitor, single point].

Question: Which Potency does the source give for `COc1cccc(NS(=O)(=O)c2ccc3c(c2)NC(=O)C(C)S3)c1` (stereo unspecified) here?
Answer: Its Potency is inconclusive: 18.5 µM [inhibitor, single point].

Question: Which “activity change, negative = inhibition” value does the source give for `Cc1c(C(=O)Nc2ccccn2)oc2c(Cl)cccc12` here?
Answer: The value was inactive: 41.9%.

Question: Which “activity change, negative = inhibition” value does the source give for `CN(NS(=O)(=O)c1cccs1)c1ncc(C(F)(F)F)cc1Cl` here?
Answer: Its value is inactive: 35%.

Question: With `Cc1ccc(/C=N/n2c(C)nnc2C)o1` as the compound, how does the “activity change, negative = inhibition” value read?
Answer: The value was inactive: 16.6%.

Question: With `Oc1ccc(-c2ccccc2)cc1CN1CCCCCC1` as the compound, how does the Potency read?
Answer: The Potency was inconclusive: 2.94 µM [inhibitor, full curve].

Question: Which Potency does the source give for `CCN(CC)C(=O)N1CCN(S(=O)(=O)c2c(C)cc(C)cc2C)CC1` here?
Answer: Its Potency is inconclusive: 3.7 µM [inhibitor, full curve].

Question: With `CCOc1ccccc1NC(=O)Nc1ccc2c(c1)CCC2` as the compound, how does the Potency read?
Answer: The Potency was inconclusive: 18.5 µM [inhibitor, single point].

Question: For `COc1cc(OC)cc(C(=O)NC(C)CNc2ccc(Cl)cc2[N+](=O)[O-])c1` (stereo unspecified), which “activity change, negative = inhibition” value is on record?
Answer: The value was inactive: 22.7%.

Question: Which Potency does the source give for `COc1ccccc1N1CCN(CCCNC(=O)C2CCCN(c3ncnc4c3nc3n4CCCCC3)C2)CC1` (stereo unspecified) here?
Answer: Its Potency is inconclusive: 14.7 µM [inhibitor, partial curve, poor fit].

Question: Which “activity change, negative = inhibition” value does the source give for `Cc1c(C(=O)Nc2nc3ccccc3[nH]2)oc2ccc(Br)cc12` here?
Answer: Its value is inactive: -102%.

Question: Which “activity change, negative = inhibition” value does the source give for `CC1CCN(C(=O)c2[nH]cnc2C(=O)N2CCN(c3ccccc3)CC2)CC1` here?
Answer: Its value is inactive: 41.2%.

Question: Which “activity change, negative = inhibition” value does the source give for `CCOc1ccc(CC(=O)OCN2C(=O)c3ccccc3C2=O)cc1` here?
Answer: The value was inactive: 97.9%.

Question: For `Cc1cc(C)n2nc(C(=O)NCc3ccco3)cc2n1`, which Potency is on record?
Answer: The Potency was inconclusive: 13.1 µM [inhibitor, single point].

Question: With `COc1ccc(-n2c(SCC(=O)Nc3cc(C)on3)nc3c(c2=O)SCC3)cc1` as the compound, how does the Potency read?
Answer: The Potency was inconclusive: 11.7 µM [inhibitor, partial curve, poor fit].

Question: For `O=C(NC1CCC(CC2CCC(NC(=O)C(Cl)Cl)CC2)CC1)C(Cl)Cl` (stereo unspecified), which “activity change, negative = inhibition” value is on record?
Answer: Its value is inactive: -1.57%.

Question: Which “activity change, negative = inhibition” value does the source give for `Cc1cccc(Oc2ncnc3onc(C)c23)c1` here?
Answer: Its value is inactive: -15.2%.

Question: With `COc1ccc(OC)c(-c2nnc3n2N=C(c2ccc(OC)c(OC)c2)CS3)c1` as the compound, how does the Potency read?
Answer: The Potency was active: 3.29 µM.

Question: With `Cc1ccc2c(c1)N(CCC(=O)N1CCC3(CC1)OCCO3)C(=O)C(C)O2` (stereo unspecified) as the compound, how does the “activity change, negative = inhibition” value read?
Answer: The value was inactive: -4.65%.

Question: Which “activity change, negative = inhibition” value does the source give for `CN1CCN(CCn2c(=S)[nH]c3ccccc3c2=O)CC1` here?
Answer: The value was inactive: 23.6%.

Question: With `COc1ccc(C(c2nnnn2Cc2cccs2)N2CCN(c3ccccc3F)CC2)cc1` (stereo unspecified) as the compound, how does the Potency read?
Answer: Its Potency is inconclusive: 18.5 µM [inhibitor, single point].

Question: Which Potency does the source give for `NC(=O)c1cc2n(n1)C(C(F)(F)F)CC(c1ccco1)N2` (stereo unspecified) here?
Answer: The Potency was inconclusive: 13.1 µM [inhibitor, partial curve].

Question: Which Potency does the source give for `O=c1c2ccccc2nc(N2CCCC2)n1-c1ccccc1` here?
Answer: The Potency was inconclusive: 9.28 µM [inhibitor, single point].

Question: Which Potency does the source give for `COc1ccc(-c2nc(CSCC(=O)NC3CCCc4ccccc43)c(C)o2)cc1OC` (stereo unspecified) here?
Answer: The Potency was active: 8.28 µM.

Question: For `Cc1ccc(C)c(S(=O)(=O)N2CCN(C(=O)C(C)Sc3ccccc3)CC2)c1` (stereo unspecified), which Potency is on record?
Answer: Its Potency is inconclusive: 13.1 µM [inhibitor, single point].

Question: For `Brc1ccc(-c2ccccc2)cc1`, which Potency is on record?
Answer: The Potency was inconclusive: 14.7 µM [inhibitor, partial curve, poor fit].

Question: With `Cc1cc(Oc2ccccc2)nc(SCC(=O)Nc2ccccc2)n1` as the compound, how does the Potency read?
Answer: The Potency was inconclusive: 18.5 µM [inhibitor, single point].

Question: For `CCOc1ccc(C(C)NC(=O)Cc2ccccc2)cc1OCC` (stereo unspecified), which Potency is on record?
Answer: The Potency was active: 2.08 µM.

Question: For `COc1ccc(-c2noc(C3CCCN(C(=O)c4c(F)cccc4F)C3)n2)cc1OC` (stereo unspecified), which “activity change, negative = inhibition” value is on record?
Answer: Its value is inactive: 0.817%.

Question: Which Potency does the source give for `CC(CCn1cccn1)NC(=O)c1cc(COc2ccc(F)cc2Cl)on1` (stereo unspecified) here?
Answer: The Potency was active: 10.4 µM.

Question: Which “activity change, negative = inhibition” value does the source give for `COc1ccc(CC(=O)OCCN(C)C)cc1` here?
Answer: Its value is inactive: 115%.

Question: With `CCCc1cc(=O)oc2cc(C)cc(OCC(=O)Nc3cccnc3)c12` as the compound, how does the Potency read?
Answer: The Potency was active: 0.0928 µM.

Question: Which “activity change, negative = inhibition” value does the source give for `CC(/C=N/NC(=O)NC1CCCCC1)=C\c1ccccc1` here?
Answer: Its value is inactive: -4.96%.

Question: With `CCOc1cc(C=C2C(=O)c3ccccc3C2=O)ccc1OCC(=O)Nc1ccc(C)cc1` as the compound, how does the Potency read?
Answer: Its Potency is inconclusive: 11.7 µM [inhibitor, single point].

Question: For `Nc1nnc(SCC(=O)NNC(=O)c2ccc([N+](=O)[O-])cc2)s1`, which “activity change, negative = inhibition” value is on record?
Answer: The value was inactive: -13%.

Question: With `CN(C)c1cc(N/N=C/c2ccc(Cl)cc2)nc(N(C)C)n1` as the compound, how does the “activity change, negative = inhibition” value read?
Answer: Its value is inactive: -16.9%.

Question: For `O=C(OCCN1C(=O)c2cccc3c(N4CCOCC4)ccc(c23)C1=O)c1ccccc1Cl`, which Potency is on record?
Answer: Its Potency is inconclusive: 8.28 µM [inhibitor, partial curve, poor fit].

Question: With `Cc1ccc(CNc2nc(N)c([N+](=O)[O-])c(Nc3cccc(F)c3)n2)cc1` as the compound, how does the Potency read?
Answer: The Potency was inconclusive: 16.5 µM [inhibitor, partial curve, poor fit].

Question: With `COc1cc(C(=O)N2CCN(S(=O)(=O)c3cccc(F)c3)CC2)ccc1OCC(=O)N1CCOCC1` as the compound, how does the “activity change, negative = inhibition” value read?
Answer: The value was inactive: 34.5%.

Question: Which Potency does the source give for `O=C(Nc1ccc(-c2csc(-c3ccccc3)n2)cc1)c1ccccc1` here?
Answer: The Potency was inconclusive: 2.94 µM [inhibitor, full curve, poor fit].

Question: Which “activity change, negative = inhibition” value does the source give for `Cc1ccccc1NS(=O)(=O)c1ccc(C(=O)N2CCCC2)cc1` here?
Answer: Its value is inactive: 16.1%.

Question: For `O=C1c2ccccc2C(Nc2ccc(S(=O)(=O)N3CCCCC3)cc2)N1c1ccccn1` (stereo unspecified), which Potency is on record?
Answer: The Potency was inconclusive: 1.31 µM [inhibitor, partial curve, poor fit].

Question: Which Potency does the source give for `Cc1c(Cl)cccc1NC(=S)Nc1ccccn1` here?
Answer: The Potency was inconclusive: 2.94 µM [inhibitor, full curve].

Question: With `CCOc1cc(C(=O)N2CCN(c3ccccn3)CC2)cc(OCC)c1OCC` as the compound, how does the Potency read?
Answer: The Potency was inconclusive: 1.31 µM [inhibitor, full curve].

Question: For `Cc1cc2nc(C)c3c(n2n1)CCC3`, which “activity change, negative = inhibition” value is on record?
Answer: The value was inactive: -26.8%.

Question: For `Cc1c(C#N)c(N)nc2c3c(sc12)NC(=O)CC3c1ccc(F)cc1` (stereo unspecified), which Potency is on record?
Answer: The Potency was inconclusive: 2.62 µM [inhibitor, single point].

Question: For `COc1cccc(CC(NC(C)=O)C(=O)NC2CCN(S(=O)(=O)c3ccc4ccccc4c3)CC2)c1` (stereo unspecified), which Potency is on record?
Answer: Its Potency is inconclusive: 8.28 µM [inhibitor, partial curve].

Question: With `Cn1cc(CN2CCCC(C(=O)Nc3cccc(-n4cccn4)c3)C2)cn1` (stereo unspecified) as the compound, how does the Potency read?
Answer: Its Potency is inconclusive: 13.1 µM [inhibitor, partial curve, poor fit].

Question: Which Potency does the source give for `O=c1cc(CN2CCN(Cc3ccc(F)cc3)C(CCO)C2)[nH]c2ccccc12` (stereo unspecified) here?
Answer: The Potency was inconclusive: 4.15 µM [inhibitor, single point].

Question: With `O=C(CN1C(=O)C(=O)c2ccccc21)NCCc1ccccc1` as the compound, how does the Potency read?
Answer: The Potency was inconclusive: 11.7 µM [inhibitor, single point].

Question: Which Potency does the source give for `CCOc1ccccc1NC(=O)c1cc(C(=O)Nc2ccccc2OCC)cc(N2C(=O)CCC2=O)c1` here?
Answer: Its Potency is inconclusive: 1.85 µM [inhibitor, single point].

Question: For `Cc1ccc(O)c(C(=O)c2cnc3c(c2)c(C)nn3C)c1`, which Potency is on record?
Answer: The Potency was active: 8.28 µM.

Question: With `CCN(CC)CCNC(=O)c1ccccc1C(=O)c1ncc[nH]1` as the compound, how does the Potency read?
Answer: The Potency was active: 1.65 µM.

Question: With `CC1CCN(C(=O)c2ccc(CSc3ccc(Cl)cc3)cc2)CC1` as the compound, how does the Potency read?
Answer: The Potency was inconclusive: 9.28 µM [inhibitor, partial curve, poor fit].

Question: With `COc1cccc(N2CCN(CC(=O)Nc3nc(C)c(C(=O)N(C)C)s3)CC2)c1` as the compound, how does the Potency read?
Answer: Its Potency is inconclusive: 18.5 µM [inhibitor, single point].

Question: With `Cc1[nH]c2ccccc2c1SCc1nnc(SCc2ccccc2)n1C` as the compound, how does the Potency read?
Answer: Its Potency is inconclusive: 2.62 µM [inhibitor, full curve, poor fit].

Question: For `CC(C)CNC(=O)C(=O)Nc1ccc2c(c1)N(S(=O)(=O)c1cccs1)CCC2`, which Potency is on record?
Answer: The Potency was active: 10.4 µM.

Question: For `Cc1ccc(S(=O)(=O)N2CCN(C(=O)N3CCOCC3)C2C)cc1` (stereo unspecified), which Potency is on record?
Answer: The Potency was inconclusive: 13.1 µM [inhibitor, single point].

Question: For `Cc1cc(C)cc(OCC(=O)Nc2ccc(F)cc2)c1`, which “activity change, negative = inhibition” value is on record?
Answer: Its value is inactive: -64.3%.

Question: Which Potency does the source give for `O=C(OC(C(=O)c1c[nH]c2ccccc12)c1ccccc1)c1cnccn1` (stereo unspecified) here?
Answer: Its Potency is inconclusive: 0.465 µM [inhibitor, full curve, poor fit].

Question: With `COCCn1c(=NC(=O)CCS(=O)(=O)c2ccccc2)sc2cc(F)ccc21` as the compound, how does the Potency read?
Answer: Its Potency is inconclusive: 18.5 µM [inhibitor, single point].

Question: With `CCC(C)(C)NC(=O)c1ccc2c(c1)N(CC(=O)OC)C(=O)C(C)(C)O2` as the compound, how does the Potency read?
Answer: The Potency was inconclusive: 11.7 µM [inhibitor, single point].

Question: With `CC(C)CNC(C(=O)Nc1ccc([N+](=O)[O-])cc1Br)c1ccccc1` (stereo unspecified) as the compound, how does the Potency read?
Answer: Its Potency is inconclusive: 6.57 µM [inhibitor, single point].

Question: For `Cn1c(=O)[nH]c(=O)c2c1nc(NN)n2CCOc1ccccc1`, which Potency is on record?
Answer: The Potency was inconclusive: 14.7 µM [inhibitor, partial curve, poor fit].

Question: With `C/C(CC1CC(C)(C)OC1=O)=N/Nc1nc(-c2ccccc2)cs1` (stereo unspecified) as the compound, how does the Potency read?
Answer: The Potency was inconclusive: 18.5 µM [inhibitor, single point].

Question: Which Potency does the source give for `CC(c1ccco1)N(C(=O)c1ccc(Cl)s1)c1ccccn1` (stereo unspecified) here?
Answer: The Potency was inconclusive: 18.5 µM [inhibitor, single point].

Question: For `CCOP(=O)(C1=C(O)C(=O)C(C(C)(C)C)=CC1=O)c1ccccc1` (stereo unspecified), which Potency is on record?
Answer: The Potency was inconclusive: 11.7 µM [inhibitor, partial curve].

Question: Which Potency does the source give for `S=c1[nH]nc(-c2ccccc2)n1/N=C/c1c[nH]c2ccccc12` here?
Answer: The Potency was inconclusive: 10.4 µM [inhibitor, partial curve, poor fit].

Question: Which Potency does the source give for `CCN(Cc1ccccc1)C(=O)COC(=O)c1c(C)nsc1NC` here?
Answer: The Potency was inconclusive: 18.5 µM [inhibitor, single point].
